Test results from US12398093B2, “Compounds and methods for treating inflammatory disorders” (Board of Supervisors of Louisiana State University and …, priority 2019, dated 2025).

System: C57BL/6J mice
Experiment: Head twitch response (HTR), magnetometer detection
Assay type: in vivo
Conditions: 5-min blocks, 210 min
Protocol: The head twitch response (HTR) can be used as a behavioral proxy in rodents for human hallucinogenic effects, because it can reliably distinguish hallucinogenic and non-hallucinogenic 5-HT2A receptor agonists. […] HTR studies were conducted with (R)-DOI and 2C-iBu in C57BL/6J mice.
Male C57BL/6J mice (6-8 weeks old) obtained from Jackson Laboratories (Bar Harbor, ME, USA) were housed at up to four per cage in a climate-controlled room on a reverse-light cycle (lights on at 1900 h, off at 0700 h) and were provided with ad libitum access to food and water, except during behavioral testing. Testing was conducted between 1000 and 1800 h.
Drug doses are based on the equivalent freebase weight. […]
The HTR was assessed using a head-mounted magnet and a magnetometer detection coil, according to known methods. […] Mice were injected with drug or vehicle and then HTR activity was recorded in a glass cylinder surrounded by a magnetometer coil. […]
Experiment 1. Five groups of mice (n=6/group, 30 total) were treated with vehicle or R-DOI (0.1, 0.3, 1, or 3 mg/kg) and HTR activity was assessed for 30 minutes. […] Five groups of mice (n=6-7/group, 34 total) were treated with vehicle or 2C-iBu (0.3, 1, 3, or 10 mg/kg) and HTR activity was assessed for 30 minutes. […] Two groups of mice (n=7/group, 14 total) were treated with R-DOI (1 mg/kg) or 2C-iBu (3 mg/kg) and HTR activity was assessed for 210 minutes. […]

| Compound | Time of HTR peak after administration (Experiment 3, 3 mg/kg SC) | Time of HTR peak after administration (Experiment 3, 1 mg/kg SC) |
| --- | --- | --- |
| COc1cc(CC(C)C)c(OC)cc1CCN [2C-iBu, 2,5-dimethoxy-4-isobutylphenethylamine] | 20 to 25 min |  |
| COc1cc(C[C@@H](C)N)c(OC)cc1I [R-DOI] |  | 5 to 10 min |
